Measurements reported in PMC8366683 (Future oncology (London, England), 2013).

Legend:
HEK293/pcDNA3.1 = assay: cells; conditions: Homo sapiens, HEK293, 72 h, read-out: IC50 ± SD^†; nM (resistance fold) / HEK293/pcDNA3.1
KB-3-1 = assay: cells; conditions: Homo sapiens, KB 3-1, 72 h, read-out: IC50 ± SD^†; nM (resistance fold) / KB-3-1

## COc1cc2c(c(OC)c1OC)-c1ccc(OC)c(=O)cc1[C@@H](NC(C)=O)CC2 [Colchicine]
HEK293/pcDNA3.1
  IC50: 20.4 nM
KB-3-1
  IC50: 19 nM
